No constants are given. Whether binding was seen depends on the method and setting. For part of these data: Binding seen in cells or lysates may run through a third protein. Some results given as binding are weak or reduced against the parent protein; the word gives no strength.
Tests used:
[1] = molecular target: Rice yellow stunt virus (RYSV) nucleoprotein (N), yeast two-hybrid fusion (Rice yellow stunt virus) (UniProt Q86523); assay: two-hybrid; Matchmaker Gal4 Two-Hybrid System 3 (Clontech), bait in pGBKT7, prey in pGADT7, yeast AH109, growth on SD/-Leu/-Trp/-His/-Ade with X-alpha-Gal
[2] = molecular target: Rice yellow stunt virus (RYSV) phosphoprotein (P), yeast two-hybrid fusion (Rice yellow stunt virus) (UniProt O70790); assay: as above
[3] = molecular target: Rice yellow stunt virus (RYSV) nucleoprotein (N), expressed in E. coli for the GST pull-down (Rice yellow stunt virus) (UniProt Q86523); assay: pull-down; self-interaction: GST-N or GST-P from E. coli BL21 lysate on glutathione-Sepharose beads (3 h), incubated with lysate of His-N or His-P (4 h); western blot with antibodies to GST and His tags
[4] = molecular target: Rice yellow stunt virus (RYSV) phosphoprotein (P), expressed in E. coli for the GST pull-down (Rice yellow stunt virus) (UniProt O70790); assay: as above
[5] = molecular target: Rice yellow stunt virus (RYSV) nucleoprotein (N), expressed in E. coli for the GST pull-down (Rice yellow stunt virus) (UniProt Q86523); assay: pull-down; GST-N or GST from E. coli BL21 lysate immobilised on glutathione-Sepharose beads (3 h), incubated with His-P (4 h; 'purified His-P protein' by the results, lysate by the methods); western blot with antibodies to GST and His tags; only the binder purified

Amino acid sequences for entries named in this document (tags omitted).
UniProt Q86523: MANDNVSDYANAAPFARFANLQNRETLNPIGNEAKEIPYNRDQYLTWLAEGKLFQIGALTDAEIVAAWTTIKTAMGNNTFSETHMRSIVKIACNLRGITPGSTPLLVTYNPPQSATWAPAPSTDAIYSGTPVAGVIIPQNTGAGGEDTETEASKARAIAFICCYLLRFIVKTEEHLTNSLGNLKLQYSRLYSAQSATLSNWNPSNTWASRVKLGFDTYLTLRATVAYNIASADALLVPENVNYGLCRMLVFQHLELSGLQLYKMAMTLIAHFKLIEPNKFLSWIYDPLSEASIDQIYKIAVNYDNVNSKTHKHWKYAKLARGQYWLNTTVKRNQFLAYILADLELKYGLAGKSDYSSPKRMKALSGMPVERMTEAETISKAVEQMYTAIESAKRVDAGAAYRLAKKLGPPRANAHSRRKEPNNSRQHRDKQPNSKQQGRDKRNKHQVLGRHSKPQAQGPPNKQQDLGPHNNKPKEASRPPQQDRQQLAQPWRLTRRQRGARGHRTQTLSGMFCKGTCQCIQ
UniProt O70790: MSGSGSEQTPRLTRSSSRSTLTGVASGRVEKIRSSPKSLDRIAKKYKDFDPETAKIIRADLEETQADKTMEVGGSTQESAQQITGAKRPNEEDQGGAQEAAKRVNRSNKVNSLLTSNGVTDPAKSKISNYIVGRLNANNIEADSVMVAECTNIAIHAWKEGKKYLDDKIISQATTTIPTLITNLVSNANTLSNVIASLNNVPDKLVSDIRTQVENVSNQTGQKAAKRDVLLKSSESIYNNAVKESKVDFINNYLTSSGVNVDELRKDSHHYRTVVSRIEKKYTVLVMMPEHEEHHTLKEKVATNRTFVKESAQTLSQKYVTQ

Substance: Rice yellow stunt virus (RYSV) nucleoprotein (N), yeast two-hybrid fusion (from UniProt Q86523 1-521)
- binding [1]: binds

Substance: Rice yellow stunt virus (RYSV) phosphoprotein (P), yeast two-hybrid fusion (from UniProt O70790 1-322)
- binding [1]: binds
- binding [2]: binds

Substance: Rice yellow stunt virus (RYSV) nucleoprotein (N), expressed in E. coli for the GST pull-down (from UniProt Q86523 1-521)
- binding [3]: binds

Substance: Rice yellow stunt virus (RYSV) phosphoprotein (P), expressed in E. coli for the GST pull-down (from UniProt O70790 1-322)
- binding [4]: binds
- binding [5]: binds

Source: publication PMC5910589
